Data published in publication PMC8492855.
No constants are given. Whether binding was seen depends on the method and setting. In cells and extracts the contact can be indirect. Some binding calls cover weakened binding; strength is not graded here.

By UniProt entry, the sequences of proteins in these tests, tags left out.
UniProt Q00613: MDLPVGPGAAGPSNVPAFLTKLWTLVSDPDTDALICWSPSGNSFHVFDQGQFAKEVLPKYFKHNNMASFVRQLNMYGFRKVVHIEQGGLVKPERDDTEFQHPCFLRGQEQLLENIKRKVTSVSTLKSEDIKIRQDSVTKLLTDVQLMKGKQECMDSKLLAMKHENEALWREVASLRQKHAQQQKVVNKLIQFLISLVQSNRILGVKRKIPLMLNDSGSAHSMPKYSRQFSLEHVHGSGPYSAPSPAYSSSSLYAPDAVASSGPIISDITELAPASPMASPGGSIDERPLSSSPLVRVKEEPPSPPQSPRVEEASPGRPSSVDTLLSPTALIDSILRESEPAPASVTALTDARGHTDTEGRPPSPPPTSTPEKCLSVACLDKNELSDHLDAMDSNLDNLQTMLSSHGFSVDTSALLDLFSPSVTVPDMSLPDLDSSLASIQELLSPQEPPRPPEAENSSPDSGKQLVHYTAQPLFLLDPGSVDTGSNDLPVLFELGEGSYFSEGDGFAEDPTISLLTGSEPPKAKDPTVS
UniProt Q03933: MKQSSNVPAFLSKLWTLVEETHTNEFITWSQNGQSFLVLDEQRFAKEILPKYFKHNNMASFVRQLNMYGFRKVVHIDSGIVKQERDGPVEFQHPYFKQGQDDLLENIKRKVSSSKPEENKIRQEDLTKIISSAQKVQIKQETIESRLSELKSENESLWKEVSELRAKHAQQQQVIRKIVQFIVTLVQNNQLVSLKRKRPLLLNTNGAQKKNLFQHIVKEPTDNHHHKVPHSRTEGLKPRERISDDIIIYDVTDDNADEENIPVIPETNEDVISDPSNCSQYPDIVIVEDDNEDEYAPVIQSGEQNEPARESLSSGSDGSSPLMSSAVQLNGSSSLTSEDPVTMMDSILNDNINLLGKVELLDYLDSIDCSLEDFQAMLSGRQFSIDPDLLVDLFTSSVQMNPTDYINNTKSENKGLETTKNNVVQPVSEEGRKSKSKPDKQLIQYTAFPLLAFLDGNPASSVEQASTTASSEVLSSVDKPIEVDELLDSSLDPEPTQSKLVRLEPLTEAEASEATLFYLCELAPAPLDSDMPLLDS

Experiments:
[1] = molecular target: FLAG-HSP90β E42A (human) (UniProt P08238); test: co-IP; anti-FLAG M2 affinity beads on 700 μg lysate (TGNET buffer: 50 mM Tris HCl pH 7.5, 5% glycerol, 100 mM NaCl, 2 mM EDTA, 0.5% Triton X-100) of transfected HEK293 cells, 2 h at 4 °C, no crosslinking, immunoblot; control cells and cells treated with GB (1.5-1.6 μM), GBA (3.2 μM), 17-AAG, celastrol or heat shock
[2] = molecular target: FLAG-HSP90β E42A (human) (UniProt P08238); test: condition: only cells treated with 10 μM 17-AAG for 4 h; co-IP; as a1, cells treated with 10 μM 17-AAG for 4 h before lysis
[3] = molecular target: FLAG-HSP90α E47A (human) (UniProt P07900); test: co-IP; anti-FLAG M2 affinity beads on 700 μg lysate (TGNET buffer: 50 mM Tris HCl pH 7.5, 5% glycerol, 100 mM NaCl, 2 mM EDTA, 0.5% Triton X-100) of transfected HEK293 cells, 2 h at 4 °C, no crosslinking, immunoblot; control cells and cells treated with GB (1.5-1.6 μM), GBA (3.2 μM), 17-AAG, celastrol or heat shock

Row | binding [1] | binding [2] | binding [3] | Substance
1 | binds | no binding |  | Myc-His-HSF1 WT (from UniProt Q00613 1-529)
2 | binds |  | binds | endogenous HSF2 (from UniProt Q03933 1-536)
